Measured values published in patent US20190225694A1 (ZAKLADY FARMACEUTYCZNE POLPHARMA, published 2019).
Results are given in words; binding and its absence hold for the method and conditions named. Some binding calls cover weakened binding; strength is not graded here.

By UniProt entry, the sequences of proteins in these tests, tags left out. Where a name states a change or a piece, a line headed by the entry shows the natural chain unless it says otherwise.
UniProt P13612: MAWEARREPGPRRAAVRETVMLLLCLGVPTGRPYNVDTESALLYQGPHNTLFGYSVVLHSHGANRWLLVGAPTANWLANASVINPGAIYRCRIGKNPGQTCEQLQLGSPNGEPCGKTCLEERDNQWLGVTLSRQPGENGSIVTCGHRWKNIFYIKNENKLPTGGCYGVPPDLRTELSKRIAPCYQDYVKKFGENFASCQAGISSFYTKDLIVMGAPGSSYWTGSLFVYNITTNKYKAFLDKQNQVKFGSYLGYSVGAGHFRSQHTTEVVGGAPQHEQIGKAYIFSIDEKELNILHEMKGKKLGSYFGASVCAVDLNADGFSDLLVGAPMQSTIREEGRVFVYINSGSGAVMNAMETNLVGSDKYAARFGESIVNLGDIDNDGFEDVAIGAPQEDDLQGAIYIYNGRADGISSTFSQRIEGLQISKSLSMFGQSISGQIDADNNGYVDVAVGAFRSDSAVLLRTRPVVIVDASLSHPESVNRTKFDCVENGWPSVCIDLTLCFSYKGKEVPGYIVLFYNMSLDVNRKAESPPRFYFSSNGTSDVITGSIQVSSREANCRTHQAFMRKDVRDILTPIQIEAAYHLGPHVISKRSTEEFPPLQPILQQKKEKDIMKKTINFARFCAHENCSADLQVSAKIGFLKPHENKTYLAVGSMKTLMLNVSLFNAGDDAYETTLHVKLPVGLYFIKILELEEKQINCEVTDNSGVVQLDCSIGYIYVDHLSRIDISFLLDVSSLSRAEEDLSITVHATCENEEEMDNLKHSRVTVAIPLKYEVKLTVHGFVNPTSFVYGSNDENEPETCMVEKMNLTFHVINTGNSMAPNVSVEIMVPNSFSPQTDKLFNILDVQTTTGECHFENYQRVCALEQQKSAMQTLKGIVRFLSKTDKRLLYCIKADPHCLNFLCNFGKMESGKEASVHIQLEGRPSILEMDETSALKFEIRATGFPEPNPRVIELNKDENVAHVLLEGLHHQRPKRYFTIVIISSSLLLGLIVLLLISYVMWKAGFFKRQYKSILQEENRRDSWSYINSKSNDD

Molecular target: integrin α4β1 (coated, direct ELISA) (UniProt P13612)
Assay: direct ELISA, coated integrin α4β1

B1: natalizumab biosimilar antibody produced by CHO DG44 Clone 1 (antibody, human IgG4, kappa, V domains shown)
VH: QVQLVQSGAEVKKPGASVKVSCKASGFNIKDTYIHWVRQAPGQRLEWMGRIDPANGYTKYDPKFQGRVTITADTSASTAYMELSSLRSEDTAVYYCAREGYYGNYGVYAMDYWGQGTLVTVSS
VL: DIQMTQSPSSLSASVGDRVTITCKTSQDINKYMAWYQQTPGKAPRLLIHYTSALQPGIPSRFSGSGSGRDYTFTISSLQPEDIATYYCLQYDNLWTFGQGTKVEIKR
notes: Tested product from the clone selection step; full-length IgG4
binding: binds

B2: natalizumab biosimilar antibody produced by CHO DG44 Clone 2 (antibody, human IgG4, kappa, V domains shown)
VH: QVQLVQSGAEVKKPGASVKVSCKASGFNIKDTYIHWVRQAPGQRLEWMGRIDPANGYTKYDPKFQGRVTITADTSASTAYMELSSLRSEDTAVYYCAREGYYGNYGVYAMDYWGQGTLVTVSS
VL: DIQMTQSPSSLSASVGDRVTITCKTSQDINKYMAWYQQTPGKAPRLLIHYTSALQPGIPSRFSGSGSGRDYTFTISSLQPEDIATYYCLQYDNLWTFGQGTKVEIKR
notes: as for B1
binding: binds
